PubChem BioAssay AID330 (DTP/NCI, 2004)
The list does not hold the whole screen: it gathers tests that were run many times, whatever their T/C, doses with no T/C, and many T/C values between a quarter and a half above the control. Further doses and runs are listed elsewhere. T/C: endpoint of the treated group in % of that of the vehicle group. Some doses have a count of surviving animals in place of a T/C: the source holds a T/C of zero for them, seemingly a mark for toxic or unscored doses. Some survivor counts are full or nearly so, which does not show that the dose was tolerated: the source hardly ever lists a survival T/C far under the control, and the zero likely stands for such cases as well. Counts of survivors are from the toxicity check (mostly the fifth day) where no day follows; animals may have died later. Schedules are NCI's codes, read here as Q, the interval in days (D) or hours (H), X, the number of doses. Some doses were run more than once; the results are listed from low to high. Some structures stand for samples that the source files as different forms (salt, stereo form or complex); doses refer to the form tested. Where survival is the endpoint, this PubChem deposit counts one and a half times the control or more as active, and values a quarter to a half above the control carry no call in these data; other NCI protocols may use other cut-offs. Some T/C values carry the count of animals alive at the toxicity check (mostly the fifth day); where none is given, no animal had died by that day.

Tested on: P388 leukemia ip, CD2F1 mice, survival T/C
Assay: NCI In Vivo Anticancer Drug Screen. Data for tumor model P388 Leukemia (intraperitoneal) in CD2F1 (CDF1) mice
Details: T/C endpoint: median survival time, higher T/C = longer survival
[1] = dose: 12.5 mg/kg/injection, schedule: Q01DX009 (ip), vehicle: saline
[2] = dose: 25.0 mg/kg/injection, schedule: Q01DX009 (ip), vehicle: saline
[3] = dose: 50.0 mg/kg/injection, schedule: Q01DX009 (ip), vehicle: saline
[4] = dose: 200.0 mg/kg/injection, schedule: Q01DX005 (ip), vehicle: Klucel (hydroxypropylcellulose) (HPC)
[5] = dose: 400.0 mg/kg/injection, schedule: Q04DX003 (ip), vehicle: Klucel (hydroxypropylcellulose) (HPC)
[6] = dose: 400.0 mg/kg/injection, schedule: Q01DX009 (ip), vehicle: saline with Tween-80
[7] = dose: 200.0 mg/kg/injection, schedule: Q01DX009 (ip), vehicle: Klucel (hydroxypropylcellulose) (HPC)
[8] = dose: 200.0 mg/kg/injection, schedule: Q01DX009 (ip), vehicle: saline
[9] = dose: 400.0 mg/kg/injection, schedule: Q01DX009 (ip), vehicle: saline
[10] = dose: 200.0 mg/kg/injection, schedule: Q01DX005 (ip), vehicle: saline with Tween-80
[11] = dose: 50.0 mg/kg/injection, schedule: Q01DX009 (ip), vehicle: saline with Tween-80
[12] = dose: 100.0 mg/kg/injection, schedule: Q01DX009 (ip), vehicle: saline with Tween-80
[13] = dose: 240.0 mg/kg/injection, schedule: Q01DX005 (ip), vehicle: saline with Tween-80

**Q.** `Cc1ccc(NC(=O)CCCCC(C)NCC(O)c2ccc(O)c(O)c2)cc1` (centres undefined) was tested. Which T/C (dose: 60.0 mg/kg/injection, schedule: Q01DX005 (ip), vehicle: saline) did it give?
**A.** 128 % of control

**Q.** And the T/C (dose: 120.0 mg/kg/injection, schedule: Q01DX005 (ip), vehicle: saline)?
**A.** 127 % of control

**Q.** What about the survivor count (dose: 240.0 mg/kg/injection, schedule: Q01DX005 (ip), vehicle: saline) of the same molecule?
**A.** 0 of 6

**Q.** What about the survivor count (dose: 400.0 mg/kg/injection, schedule: Q01DX001 (ip), vehicle: saline) of the same molecule?
**A.** 0 of 6

**Q.** Which survivor count (dose: 3.13 mg/kg/injection, schedule: Q01DX009 (ip), vehicle: Klucel (hydroxypropylcellulose) (HPC)) does the source give for `C[N+](C)(C)CCOS(C)(=O)=O` here?
**A.** 6 of 6

**Q.** What about the survivor count (dose: 6.25 mg/kg/injection, schedule: Q01DX009 (ip), vehicle: saline) of the same molecule?
**A.** 1 of 6

**Q.** What about the survivor count (dose: 12.5 mg/kg/injection, schedule: Q01DX009 (ip), vehicle: Klucel (hydroxypropylcellulose) (HPC)) of the same molecule?
**A.** 6 of 6

**Q.** What about the survivor count [1] of the same molecule?
**A.** 3 of 6

**Q.** What about the survivor count (dose: 25.0 mg/kg/injection, schedule: Q01DX009 (ip), vehicle: Klucel (hydroxypropylcellulose) (HPC)) of the same molecule?
**A.** 4 of 6

**Q.** What about the survivor count [2] of the same molecule?
**A.** 3 of 6

**Q.** And the survivor count [3]?
**A.** 0 of 6

**Q.** How did the survivor count (dose: 50.0 mg/kg/injection, schedule: Q01DX005 (ip), vehicle: Klucel (hydroxypropylcellulose) (HPC)) turn out when `N[C@H]1CN([C@@H](C(=O)O)c2ccc(O)cc2)C1=O` was run?
**A.** 5 of 5

**Q.** And the T/C (dose: 100.0 mg/kg/injection, schedule: Q01DX005 (ip), vehicle: Klucel (hydroxypropylcellulose) (HPC))?
**A.** 125 % of control

**Q.** And the T/C [4]?
**A.** 127 % of control

**Q.** How did the survivor count [5] turn out when `CC1(C)CC(c2ccccc2)C(c2ccccc2)C(=O)O1` (centres undefined) was run?
**A.** 2 of 6

**Q.** With `[Cl][Cu][Cl].[O-][n+]1c2ccccc2nc2ccccc21` as the molecule, how does the survivor count (dose: 50.0 mg/kg/injection, schedule: Q04DX003 (ip), vehicle: saline with Tween-80) read?
**A.** 0 of 6

**Q.** And the survivor count (dose: 100.0 mg/kg/injection, schedule: Q04DX003 (ip), vehicle: saline with Tween-80)?
**A.** 0 of 6

**Q.** And the survivor count (dose: 200.0 mg/kg/injection, schedule: Q04DX003 (ip), vehicle: saline with Tween-80)?
**A.** 0 of 6

**Q.** And the survivor count (dose: 400.0 mg/kg/injection, schedule: Q04DX003 (ip), vehicle: saline with Tween-80)?
**A.** 0 of 6

**Q.** What does the source list for `CCOC(OCC)c1c(Cl)cccc1Cl`?
**A.** survivor count (dose: 264.0 mg/kg/injection, schedule: Q01DX009 (ip), vehicle: saline with Tween-80): 3 of 6; T/C [6]: 127 % of control [5 of 6 alive]; survivor count [6]: 2 of 6; survivor count (dose: 600.0 mg/kg/injection, schedule: Q01DX009 (ip), vehicle: saline with Tween-80): 1 of 6

**Q.** How did the survivor count [7] turn out when `CC(N)(CSCc1ccccc1)C(=O)O` (centres undefined) was run?
**A.** 3 of 6

**Q.** For `C=CCn1c(NC2=C(Cl)C(=O)c3ccccc3C2=O)cc(=O)[nH]c1=O`, which survivor count (dose: 100.0 mg/kg/injection, schedule: Q01DX009 (ip), vehicle: Klucel (hydroxypropylcellulose) (HPC)) is on record?
**A.** 4 of 6

**Q.** And the survivor count [7]?
**A.** 6 of 6

**Q.** `CC12CCC3c4ccc(O)cc4CCC3C1CCC2(O)CN1CCCCC1` (centres undefined) was tested. Which survivor count [4] did it give?
**A.** 0 of 6

**Q.** What does the source list for `CC1Nc2ccccc2NC1C` (centres undefined)?
**A.** survivor count (dose: 50.0 mg/kg/injection, schedule: Q01DX009 (ip), vehicle: saline + Tween-80 + alcohol): 5 of 6; survivor count (dose: 200.0 mg/kg/injection, schedule: Q01DX009 (ip), vehicle: saline + Tween-80 + alcohol): 3 of 6

**Q.** How did the survivor count [8] turn out when `NCc1ccccc1` was run?
**A.** 1 of 6 and 3 of 6

**Q.** And the survivor count [9]?
**A.** 0 of 6

**Q.** What about the survivor count (dose: 600.0 mg/kg/injection, schedule: Q01DX009 (ip), vehicle: saline) of the same molecule?
**A.** 0 of 6

**Q.** Which survivor count (dose: 40.0 mg/kg/injection, schedule: Q01DX005 (ip), vehicle: Klucel (hydroxypropylcellulose) (HPC)) does the source give for `CC1=C2CC(C)(C)/C=C\C(=O)/C(C)=C\C3=CCCC3(O2)C1=O` (centres undefined) here?
**A.** 0 of 5

**Q.** And the survivor count (dose: 80.0 mg/kg/injection, schedule: Q01DX005 (ip), vehicle: Klucel (hydroxypropylcellulose) (HPC))?
**A.** 0 of 5

**Q.** For `FC(F)(F)c1nnc(-c2ccccc2)nn1`, which survivor count (dose: 400.0 mg/kg/injection, schedule: Q04DX002 (ip), vehicle: Klucel (hydroxypropylcellulose) (HPC)) is on record?
**A.** 4 of 6

**Q.** How did the survivor count [10] turn out when `Cc1cc(NCCCCN2CCOCC2)nc2ccc3ccccc3c12` was run?
**A.** 0 of 5

**Q.** With `C#CCOc1ccccc1/C(Cl)=N/Nc1ccc([N+](=O)[O-])cc1[N+](=O)[O-]` as the molecule, how does the survivor count (dose: 12.5 mg/kg/injection, schedule: Q01DX009 (ip), vehicle: saline with Tween-80) read?
**A.** 6 of 6

**Q.** What about the survivor count [11] of the same molecule?
**A.** 6 of 6

**Q.** What about the survivor count [12] of the same molecule?
**A.** 6 of 6

**Q.** What about the survivor count (dose: 200.0 mg/kg/injection, schedule: Q01DX009 (ip), vehicle: saline with Tween-80) of the same molecule?
**A.** 6 of 6

**Q.** How did the survivor count (dose: 200.0 mg/kg/injection, schedule: Q01DX001 (ip), vehicle: other) turn out when `NC(=S)c1ccc(C=Nc2ccc(Cl)cc2)cc1` was run?
**A.** 3 of 6

**Q.** Which survivor count [13] does the source give for `CC(C)CC(CO)Cc1nc2ccccc2[nH]1` (centres undefined) here?
**A.** 1 of 6

**Q.** `CC1=CC(=O)N2CCN=C2S1` was tested. Which survivor count [5] did it give?
**A.** 2 of 6

**Q.** `CNC(=S)NNc1ccc(C)cc1` was tested. Which survivor count (dose: 50.0 mg/kg/injection, schedule: Q01DX009 (ip), vehicle: other) did it give?
**A.** 6 of 6

**Q.** With `CCCCOP(O)(=S)OCCCC.[Ho]` as the molecule, how does the T/C (dose: 100.0 mg/kg/injection, schedule: Q01DX001 (ip), vehicle: saline with Tween-80) read?
**A.** 139 % of control

**Q.** `CCC(=O)Oc1ccc(/C=N/NC(N)=S)nc1` was tested. Which T/C [1] did it give?
**A.** 132 % of control

**Q.** What about the T/C [2] of the same molecule?
**A.** 148 % of control

**Q.** What about the T/C (dose: 100.0 mg/kg/injection, schedule: Q01DX009 (ip), vehicle: saline) of the same molecule?
**A.** 141, 150, 196, 197 % of control

**Q.** And the survivor count [8]?
**A.** 6 of 6

**Q.** What about the survivor count [9] of the same molecule?
**A.** 5 of 6 and 6 of 6

**Q.** For `COc1ccc(C2CC(C)(OC)Oc3cc4c(cc32)OCO4)cc1` (centres undefined), which survivor count (dose: 400.0 mg/kg/injection, schedule: Q01DX001 (ip), vehicle: Klucel (hydroxypropylcellulose) (HPC)) is on record?
**A.** 6 of 6

**Q.** How did the T/C (dose: 25.0 mg/kg/injection, schedule: Q04DX003 (ip), vehicle: saline with Tween-80) turn out when `CC(CNC(=O)CCOS(C)(=O)=O)NC(=O)CCOS(C)(=O)=O` (centres undefined) was run?
**A.** 127 % of control

**Q.** Which results are given for `COc1cc2cc(c1Cl)N1CC(=O)C(C)(O)C(=O)N(C)C(C)C(=O)OC(CC1=O)C1(C)OC1C(C)C1CC(O)(NC(=O)O1)C(OC)/C=C\C=C(\C)C2OC` (centres undefined)?
**A.** survivor count (dose: 16.0 micrograms/kg/injection, schedule: Q01DX009 (ip), vehicle: distilled water + alcohol): 6 of 6; survivor count (dose: 32.0 micrograms/kg/injection, schedule: Q01DX009 (ip), vehicle: distilled water + alcohol): 5 of 6

**Q.** Which survivor count [10] does the source give for `O=c1nc2n(CC(O)C(O)C(O)C(O)CO)c3cc(Cl)c(Cl)cc3nc-2c(=O)[nH]1` (centres undefined) here?
**A.** 2 of 6

**Q.** What does the source list for `Cc1cc2nc3ccc(N)cc3oc-2cc1=[N+](C)C`?
**A.** T/C [1]: 128 and 134 % of control; T/C [2]: 128 and 139 % of control; T/C [3]: 137 % of control

**Q.** Which survivor count [13] does the source give for `Cc1cc(=O)oc2c1ccc1c(O)cccc12` here?
**A.** 0 of 6

**Q.** With `C1CCC2CC3CCCCN3COC2CC1` (centres undefined) as the molecule, how does the survivor count (dose: 200.0 mg/kg/injection, schedule: Q01DX005 (ip), vehicle: saline) read?
**A.** 2 of 6

**Q.** How did the survivor count (dose: 200.0 mg/kg/injection, schedule: Q01DX001 (ip), vehicle: saline with Tween-80) turn out when `Nc1cc(Cl)c2[nH]c(-c3ccccc3)nc2n1` was run?
**A.** 6 of 6

**Q.** For `[Cl][Pt+2][Cl].[NH-]C1CCCC2CCC[N-]C12` (centres undefined), which T/C (dose: 25.0 mg/kg/injection, schedule: Q01DX009 (ip), vehicle: saline with Tween-80) is on record?
**A.** 143 and 147 % of control

**Q.** And the T/C [11]?
**A.** 145 % of control

**Q.** With `CN1CCC2(CC1)COCc1ccccc12` as the molecule, how does the survivor count [12] read?
**A.** 4 of 6
